The target of one assay is FA-free BSA (bovine) (UniProt P02769). In words: quartz-crystal microbalance (QCM); 27 MHz QCM (Affinix Q8); megalin (10 mg/mL in 10 mM HEPES pH 7.4, 150 mM NaCl, 2 mM CaCl2) or FA-free BSA immobilised on the sensor chips; FABP4 (1 mg/mL) injected into the chamber; binding read as change in frequency; both purified.
Another assay has as its target rat megalin (rat) (UniProt P98158). Described as above.

Protein sequences, listed by entry. Tags and fused reporters are not part of them. Residues count along the entry.
UniProt P02769, residues 25-607: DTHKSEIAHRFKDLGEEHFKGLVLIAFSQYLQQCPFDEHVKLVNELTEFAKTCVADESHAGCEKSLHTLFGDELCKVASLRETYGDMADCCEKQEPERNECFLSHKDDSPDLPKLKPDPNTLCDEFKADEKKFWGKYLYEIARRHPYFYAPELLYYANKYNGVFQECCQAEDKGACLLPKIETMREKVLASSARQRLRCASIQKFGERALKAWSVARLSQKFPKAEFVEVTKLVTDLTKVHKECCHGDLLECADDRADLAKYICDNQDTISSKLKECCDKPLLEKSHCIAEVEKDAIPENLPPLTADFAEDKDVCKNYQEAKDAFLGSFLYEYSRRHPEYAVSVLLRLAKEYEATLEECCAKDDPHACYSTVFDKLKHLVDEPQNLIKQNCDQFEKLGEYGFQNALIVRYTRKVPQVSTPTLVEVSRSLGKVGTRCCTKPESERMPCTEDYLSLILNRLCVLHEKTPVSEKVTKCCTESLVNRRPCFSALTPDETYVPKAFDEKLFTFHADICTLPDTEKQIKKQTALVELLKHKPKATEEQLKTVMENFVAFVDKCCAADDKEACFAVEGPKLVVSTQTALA
UniProt P98158, residues 26-4660: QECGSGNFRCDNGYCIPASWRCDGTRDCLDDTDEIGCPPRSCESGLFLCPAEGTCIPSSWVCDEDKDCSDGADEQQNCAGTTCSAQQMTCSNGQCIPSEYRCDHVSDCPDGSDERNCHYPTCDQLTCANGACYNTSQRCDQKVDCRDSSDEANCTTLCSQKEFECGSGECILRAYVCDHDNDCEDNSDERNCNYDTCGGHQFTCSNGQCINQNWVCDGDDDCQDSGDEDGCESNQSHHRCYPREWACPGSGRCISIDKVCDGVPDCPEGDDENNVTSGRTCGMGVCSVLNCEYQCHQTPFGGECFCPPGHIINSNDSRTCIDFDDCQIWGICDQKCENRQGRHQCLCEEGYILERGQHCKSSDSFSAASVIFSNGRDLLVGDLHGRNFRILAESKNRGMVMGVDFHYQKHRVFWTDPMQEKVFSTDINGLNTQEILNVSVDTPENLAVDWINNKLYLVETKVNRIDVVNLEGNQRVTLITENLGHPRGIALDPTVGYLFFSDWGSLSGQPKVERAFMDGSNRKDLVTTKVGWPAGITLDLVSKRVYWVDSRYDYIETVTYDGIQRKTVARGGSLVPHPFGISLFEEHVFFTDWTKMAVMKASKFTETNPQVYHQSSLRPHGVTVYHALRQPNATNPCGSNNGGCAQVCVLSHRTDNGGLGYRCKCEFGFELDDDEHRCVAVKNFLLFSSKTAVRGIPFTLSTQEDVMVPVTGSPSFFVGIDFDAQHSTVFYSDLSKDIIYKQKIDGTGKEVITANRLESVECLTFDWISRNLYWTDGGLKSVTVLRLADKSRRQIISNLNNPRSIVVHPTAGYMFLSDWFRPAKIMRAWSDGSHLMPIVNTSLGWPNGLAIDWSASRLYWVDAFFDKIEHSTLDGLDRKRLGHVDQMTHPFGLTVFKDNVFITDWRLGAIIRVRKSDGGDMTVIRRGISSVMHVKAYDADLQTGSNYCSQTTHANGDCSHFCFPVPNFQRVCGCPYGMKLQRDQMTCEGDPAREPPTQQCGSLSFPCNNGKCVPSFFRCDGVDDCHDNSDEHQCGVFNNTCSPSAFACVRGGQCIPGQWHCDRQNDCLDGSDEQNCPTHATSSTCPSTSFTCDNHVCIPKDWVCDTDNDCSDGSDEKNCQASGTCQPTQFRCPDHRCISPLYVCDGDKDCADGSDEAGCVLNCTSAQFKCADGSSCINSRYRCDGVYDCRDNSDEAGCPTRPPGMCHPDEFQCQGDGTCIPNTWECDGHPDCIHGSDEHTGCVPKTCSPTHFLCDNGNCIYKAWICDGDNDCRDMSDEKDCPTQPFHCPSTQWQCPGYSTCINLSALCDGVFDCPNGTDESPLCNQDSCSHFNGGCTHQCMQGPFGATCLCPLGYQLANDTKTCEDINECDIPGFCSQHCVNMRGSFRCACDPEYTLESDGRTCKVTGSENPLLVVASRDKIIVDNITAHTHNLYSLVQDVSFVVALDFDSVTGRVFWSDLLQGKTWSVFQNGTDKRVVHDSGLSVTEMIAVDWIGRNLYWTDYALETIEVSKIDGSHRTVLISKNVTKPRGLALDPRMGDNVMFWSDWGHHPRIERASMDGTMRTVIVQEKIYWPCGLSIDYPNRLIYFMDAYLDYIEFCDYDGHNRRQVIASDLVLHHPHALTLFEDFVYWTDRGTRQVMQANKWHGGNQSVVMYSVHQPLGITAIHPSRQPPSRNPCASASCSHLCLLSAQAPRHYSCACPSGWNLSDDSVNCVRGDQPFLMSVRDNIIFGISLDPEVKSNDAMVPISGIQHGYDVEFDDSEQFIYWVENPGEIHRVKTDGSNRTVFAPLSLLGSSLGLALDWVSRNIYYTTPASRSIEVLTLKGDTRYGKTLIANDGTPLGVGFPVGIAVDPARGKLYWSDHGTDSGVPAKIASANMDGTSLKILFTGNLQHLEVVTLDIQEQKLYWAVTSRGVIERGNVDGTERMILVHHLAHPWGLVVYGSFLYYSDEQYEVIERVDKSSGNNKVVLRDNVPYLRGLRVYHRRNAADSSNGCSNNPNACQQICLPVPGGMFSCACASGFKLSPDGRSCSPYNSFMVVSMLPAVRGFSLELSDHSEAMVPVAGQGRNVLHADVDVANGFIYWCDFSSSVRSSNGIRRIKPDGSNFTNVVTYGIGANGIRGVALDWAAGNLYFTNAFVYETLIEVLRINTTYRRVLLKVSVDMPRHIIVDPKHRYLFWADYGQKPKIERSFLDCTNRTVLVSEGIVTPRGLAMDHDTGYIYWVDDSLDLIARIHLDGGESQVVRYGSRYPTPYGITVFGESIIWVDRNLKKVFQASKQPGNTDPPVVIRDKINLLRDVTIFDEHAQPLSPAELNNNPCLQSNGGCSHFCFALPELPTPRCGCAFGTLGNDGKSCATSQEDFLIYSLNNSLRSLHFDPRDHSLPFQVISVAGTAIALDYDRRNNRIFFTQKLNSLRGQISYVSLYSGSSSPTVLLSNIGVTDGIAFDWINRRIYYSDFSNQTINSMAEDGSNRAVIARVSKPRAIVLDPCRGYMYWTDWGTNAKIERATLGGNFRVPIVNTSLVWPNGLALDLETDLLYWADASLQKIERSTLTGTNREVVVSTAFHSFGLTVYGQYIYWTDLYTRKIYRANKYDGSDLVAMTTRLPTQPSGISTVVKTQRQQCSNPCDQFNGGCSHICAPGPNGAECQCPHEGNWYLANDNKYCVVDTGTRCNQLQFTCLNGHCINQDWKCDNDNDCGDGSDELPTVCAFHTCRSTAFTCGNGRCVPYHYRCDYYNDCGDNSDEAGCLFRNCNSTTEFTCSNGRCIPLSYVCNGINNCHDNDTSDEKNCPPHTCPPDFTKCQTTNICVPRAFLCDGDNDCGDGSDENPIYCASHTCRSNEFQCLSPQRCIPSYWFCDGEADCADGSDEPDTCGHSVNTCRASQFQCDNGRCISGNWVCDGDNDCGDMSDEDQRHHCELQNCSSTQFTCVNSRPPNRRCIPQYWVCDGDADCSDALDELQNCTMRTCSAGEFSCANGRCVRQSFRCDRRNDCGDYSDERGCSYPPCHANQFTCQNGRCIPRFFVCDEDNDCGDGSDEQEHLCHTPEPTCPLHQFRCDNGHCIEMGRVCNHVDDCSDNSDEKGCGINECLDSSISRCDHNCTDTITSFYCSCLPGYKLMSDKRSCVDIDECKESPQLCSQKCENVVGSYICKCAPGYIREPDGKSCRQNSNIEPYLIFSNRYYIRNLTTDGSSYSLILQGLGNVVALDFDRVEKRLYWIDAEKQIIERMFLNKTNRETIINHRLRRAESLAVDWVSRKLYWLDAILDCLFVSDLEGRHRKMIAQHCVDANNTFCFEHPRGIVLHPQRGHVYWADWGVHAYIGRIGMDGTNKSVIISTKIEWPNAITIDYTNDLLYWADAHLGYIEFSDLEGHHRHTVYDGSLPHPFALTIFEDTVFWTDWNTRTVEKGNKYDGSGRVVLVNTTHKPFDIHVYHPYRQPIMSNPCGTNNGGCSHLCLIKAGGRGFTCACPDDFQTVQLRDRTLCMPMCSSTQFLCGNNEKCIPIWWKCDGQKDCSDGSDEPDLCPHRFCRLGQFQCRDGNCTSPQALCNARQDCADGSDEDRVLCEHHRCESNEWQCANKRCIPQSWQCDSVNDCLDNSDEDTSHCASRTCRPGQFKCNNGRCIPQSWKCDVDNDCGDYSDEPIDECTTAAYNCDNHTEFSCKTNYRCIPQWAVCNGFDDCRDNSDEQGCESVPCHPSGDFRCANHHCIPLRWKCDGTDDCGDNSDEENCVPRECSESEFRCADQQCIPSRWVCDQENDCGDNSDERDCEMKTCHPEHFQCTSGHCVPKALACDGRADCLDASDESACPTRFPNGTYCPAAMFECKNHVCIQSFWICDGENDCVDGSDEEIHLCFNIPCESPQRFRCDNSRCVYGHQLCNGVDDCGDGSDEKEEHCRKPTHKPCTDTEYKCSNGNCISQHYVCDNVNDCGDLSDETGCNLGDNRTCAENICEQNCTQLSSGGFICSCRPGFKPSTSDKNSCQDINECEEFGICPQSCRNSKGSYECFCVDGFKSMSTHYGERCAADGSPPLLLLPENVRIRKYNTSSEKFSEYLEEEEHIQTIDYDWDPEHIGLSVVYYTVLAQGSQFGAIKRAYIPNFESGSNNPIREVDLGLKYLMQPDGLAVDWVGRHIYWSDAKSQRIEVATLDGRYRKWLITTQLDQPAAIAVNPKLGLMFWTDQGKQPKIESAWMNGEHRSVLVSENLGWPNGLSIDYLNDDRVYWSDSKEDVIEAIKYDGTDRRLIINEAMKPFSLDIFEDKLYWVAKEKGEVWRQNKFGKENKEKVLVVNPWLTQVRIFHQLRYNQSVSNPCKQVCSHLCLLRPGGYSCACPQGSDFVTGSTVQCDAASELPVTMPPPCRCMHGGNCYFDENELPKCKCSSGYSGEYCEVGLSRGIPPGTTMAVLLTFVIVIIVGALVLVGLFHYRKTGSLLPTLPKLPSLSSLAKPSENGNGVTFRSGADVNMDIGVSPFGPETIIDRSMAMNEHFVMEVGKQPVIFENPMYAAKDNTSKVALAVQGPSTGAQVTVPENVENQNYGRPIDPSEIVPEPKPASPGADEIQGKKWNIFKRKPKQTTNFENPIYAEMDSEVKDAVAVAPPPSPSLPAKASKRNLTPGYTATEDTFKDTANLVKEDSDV
UniProt P15090: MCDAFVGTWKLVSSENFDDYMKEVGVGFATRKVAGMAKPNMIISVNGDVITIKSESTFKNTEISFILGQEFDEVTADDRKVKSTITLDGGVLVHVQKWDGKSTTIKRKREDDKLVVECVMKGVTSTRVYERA

Data on one substance can be found in publication PMC6219568.

Results are given in words; binding and its absence hold for the method and conditions named. Some entries that bind do so weakly or less than the wild type.

On to “Fatty acid binding protein 4 (recombinant human FABP4) (from UniProt P15090 1-132)”, for which the binding result with FA-free BSA (bovine) is listed as “no binding (tested: 1 mg/ml)”; with rat megalin (rat), “binds”.
